This is one part of the list. Most values lie at the level of the controls, where differences are scatter.
compound: Cc1nc(Nc2ncc(C(=O)Nc3c(C)cccc3Cl)s2)cc(N2CCN(CCO)CC2)n1 [dasatinib]; test: log2 fold change of tryptic peptide abundance, ligand vs vehicle (limited proteolysis) (log2 ratio); higher = more trypsin-susceptible (destabilized); settings: ligand concentration: 5 uM; sample: K562 cleared lysate

Amino acid sequences for entries named in this document (tags omitted). A change or cut given only in a name is not applied to a line headed by its entry.
UniProt Q96PZ2, whole entry: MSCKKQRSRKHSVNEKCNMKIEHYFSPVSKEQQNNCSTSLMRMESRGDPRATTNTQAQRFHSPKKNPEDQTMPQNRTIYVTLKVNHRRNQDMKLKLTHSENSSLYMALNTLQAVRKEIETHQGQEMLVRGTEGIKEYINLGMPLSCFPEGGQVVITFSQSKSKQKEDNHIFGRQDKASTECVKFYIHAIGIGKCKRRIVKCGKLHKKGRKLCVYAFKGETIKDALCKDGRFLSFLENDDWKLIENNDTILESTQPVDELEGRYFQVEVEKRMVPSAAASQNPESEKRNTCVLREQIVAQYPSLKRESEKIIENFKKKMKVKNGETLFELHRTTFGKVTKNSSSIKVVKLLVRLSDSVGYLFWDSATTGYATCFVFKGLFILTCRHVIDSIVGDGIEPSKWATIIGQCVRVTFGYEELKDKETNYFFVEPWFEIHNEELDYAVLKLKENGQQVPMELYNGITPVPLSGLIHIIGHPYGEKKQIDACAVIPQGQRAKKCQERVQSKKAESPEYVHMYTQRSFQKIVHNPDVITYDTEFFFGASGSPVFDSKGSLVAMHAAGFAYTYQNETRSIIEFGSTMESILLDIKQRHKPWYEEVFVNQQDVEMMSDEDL
UniProt Q96FV0: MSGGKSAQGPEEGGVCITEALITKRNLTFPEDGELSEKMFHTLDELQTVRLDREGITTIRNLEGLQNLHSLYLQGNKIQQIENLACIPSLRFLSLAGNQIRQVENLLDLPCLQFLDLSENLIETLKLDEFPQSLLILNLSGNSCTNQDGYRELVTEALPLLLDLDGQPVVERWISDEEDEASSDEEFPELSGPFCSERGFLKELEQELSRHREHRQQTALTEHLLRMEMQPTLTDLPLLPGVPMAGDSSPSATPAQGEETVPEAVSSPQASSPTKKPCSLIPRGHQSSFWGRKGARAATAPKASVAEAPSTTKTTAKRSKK
UniProt Q96P50: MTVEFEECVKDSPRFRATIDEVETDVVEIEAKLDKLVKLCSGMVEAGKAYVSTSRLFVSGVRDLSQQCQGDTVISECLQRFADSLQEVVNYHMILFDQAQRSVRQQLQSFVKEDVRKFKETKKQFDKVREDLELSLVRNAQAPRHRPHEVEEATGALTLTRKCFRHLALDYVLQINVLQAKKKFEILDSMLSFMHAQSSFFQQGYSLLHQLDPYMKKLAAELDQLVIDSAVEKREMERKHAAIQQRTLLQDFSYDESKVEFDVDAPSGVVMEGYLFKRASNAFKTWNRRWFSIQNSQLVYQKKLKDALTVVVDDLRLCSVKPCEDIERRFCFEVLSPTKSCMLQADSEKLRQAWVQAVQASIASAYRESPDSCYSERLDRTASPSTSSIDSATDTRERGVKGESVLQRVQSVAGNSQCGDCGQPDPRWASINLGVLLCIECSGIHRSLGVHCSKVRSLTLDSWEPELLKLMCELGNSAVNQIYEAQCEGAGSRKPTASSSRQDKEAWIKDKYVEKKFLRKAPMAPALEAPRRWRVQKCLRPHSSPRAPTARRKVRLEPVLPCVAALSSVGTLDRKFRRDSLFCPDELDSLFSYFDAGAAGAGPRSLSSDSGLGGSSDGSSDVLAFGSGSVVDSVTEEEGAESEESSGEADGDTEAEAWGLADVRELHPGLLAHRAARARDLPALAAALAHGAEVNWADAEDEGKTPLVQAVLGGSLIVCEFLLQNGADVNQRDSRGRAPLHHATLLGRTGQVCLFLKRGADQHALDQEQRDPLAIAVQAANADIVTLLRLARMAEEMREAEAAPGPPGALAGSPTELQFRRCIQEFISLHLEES
UniProt Q96GD0: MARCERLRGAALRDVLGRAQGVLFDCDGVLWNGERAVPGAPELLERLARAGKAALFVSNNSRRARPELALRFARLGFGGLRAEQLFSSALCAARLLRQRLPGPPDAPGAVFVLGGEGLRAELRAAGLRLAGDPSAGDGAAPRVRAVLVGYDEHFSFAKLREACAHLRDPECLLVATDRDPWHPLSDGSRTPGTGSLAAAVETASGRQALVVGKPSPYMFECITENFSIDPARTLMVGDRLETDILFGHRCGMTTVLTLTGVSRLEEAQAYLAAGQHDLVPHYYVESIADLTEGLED
UniProt Q96LR5: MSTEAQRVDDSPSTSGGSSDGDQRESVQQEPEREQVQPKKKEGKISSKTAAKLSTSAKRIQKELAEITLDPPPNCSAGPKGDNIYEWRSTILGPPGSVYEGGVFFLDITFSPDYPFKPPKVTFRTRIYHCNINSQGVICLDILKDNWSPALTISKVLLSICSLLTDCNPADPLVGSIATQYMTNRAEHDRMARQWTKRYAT
UniProt Q96PV6, whole entry: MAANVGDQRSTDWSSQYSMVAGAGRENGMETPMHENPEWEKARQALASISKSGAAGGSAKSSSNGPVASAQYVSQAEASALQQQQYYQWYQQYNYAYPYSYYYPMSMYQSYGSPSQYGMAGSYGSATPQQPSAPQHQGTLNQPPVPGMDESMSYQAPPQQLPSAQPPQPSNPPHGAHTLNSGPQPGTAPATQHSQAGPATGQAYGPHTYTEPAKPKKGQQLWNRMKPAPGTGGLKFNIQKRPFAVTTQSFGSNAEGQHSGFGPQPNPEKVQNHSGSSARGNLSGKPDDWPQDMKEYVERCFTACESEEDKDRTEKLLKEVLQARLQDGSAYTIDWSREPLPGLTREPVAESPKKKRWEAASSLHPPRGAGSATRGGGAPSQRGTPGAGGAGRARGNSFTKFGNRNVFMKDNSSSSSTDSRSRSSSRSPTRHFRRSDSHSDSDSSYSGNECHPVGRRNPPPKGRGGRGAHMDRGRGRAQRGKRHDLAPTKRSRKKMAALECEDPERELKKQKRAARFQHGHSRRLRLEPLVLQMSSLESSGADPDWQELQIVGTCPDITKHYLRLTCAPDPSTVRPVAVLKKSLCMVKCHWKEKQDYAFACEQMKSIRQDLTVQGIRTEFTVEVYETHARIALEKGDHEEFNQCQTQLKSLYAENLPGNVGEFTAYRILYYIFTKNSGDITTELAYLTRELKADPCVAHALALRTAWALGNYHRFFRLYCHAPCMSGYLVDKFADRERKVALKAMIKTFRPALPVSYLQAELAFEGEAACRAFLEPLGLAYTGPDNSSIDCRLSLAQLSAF
UniProt Q96G75, whole entry: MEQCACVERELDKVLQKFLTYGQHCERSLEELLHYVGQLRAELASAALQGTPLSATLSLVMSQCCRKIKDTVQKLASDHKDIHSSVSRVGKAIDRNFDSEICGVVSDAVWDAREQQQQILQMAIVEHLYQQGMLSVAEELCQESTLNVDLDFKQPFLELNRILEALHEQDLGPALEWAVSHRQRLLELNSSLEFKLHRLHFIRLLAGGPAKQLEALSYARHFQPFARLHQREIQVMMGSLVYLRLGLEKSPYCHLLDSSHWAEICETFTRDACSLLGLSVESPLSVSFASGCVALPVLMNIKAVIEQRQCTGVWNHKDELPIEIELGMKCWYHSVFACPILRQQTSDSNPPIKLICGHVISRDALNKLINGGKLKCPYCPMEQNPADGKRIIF
UniProt Q96KB5: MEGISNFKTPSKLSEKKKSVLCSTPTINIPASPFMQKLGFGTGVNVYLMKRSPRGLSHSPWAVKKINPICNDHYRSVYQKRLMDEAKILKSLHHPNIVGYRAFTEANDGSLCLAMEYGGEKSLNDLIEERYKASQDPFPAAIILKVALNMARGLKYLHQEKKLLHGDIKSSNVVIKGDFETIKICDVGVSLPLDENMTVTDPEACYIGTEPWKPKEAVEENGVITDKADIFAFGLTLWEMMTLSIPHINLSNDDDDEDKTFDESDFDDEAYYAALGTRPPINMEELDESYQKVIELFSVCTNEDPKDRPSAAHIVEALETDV
UniProt Q96GI7: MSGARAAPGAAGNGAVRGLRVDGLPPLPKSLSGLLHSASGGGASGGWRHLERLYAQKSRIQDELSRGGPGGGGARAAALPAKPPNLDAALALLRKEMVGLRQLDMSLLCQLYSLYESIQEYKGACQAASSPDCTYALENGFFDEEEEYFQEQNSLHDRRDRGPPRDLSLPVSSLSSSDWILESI
UniProt Q96Q42: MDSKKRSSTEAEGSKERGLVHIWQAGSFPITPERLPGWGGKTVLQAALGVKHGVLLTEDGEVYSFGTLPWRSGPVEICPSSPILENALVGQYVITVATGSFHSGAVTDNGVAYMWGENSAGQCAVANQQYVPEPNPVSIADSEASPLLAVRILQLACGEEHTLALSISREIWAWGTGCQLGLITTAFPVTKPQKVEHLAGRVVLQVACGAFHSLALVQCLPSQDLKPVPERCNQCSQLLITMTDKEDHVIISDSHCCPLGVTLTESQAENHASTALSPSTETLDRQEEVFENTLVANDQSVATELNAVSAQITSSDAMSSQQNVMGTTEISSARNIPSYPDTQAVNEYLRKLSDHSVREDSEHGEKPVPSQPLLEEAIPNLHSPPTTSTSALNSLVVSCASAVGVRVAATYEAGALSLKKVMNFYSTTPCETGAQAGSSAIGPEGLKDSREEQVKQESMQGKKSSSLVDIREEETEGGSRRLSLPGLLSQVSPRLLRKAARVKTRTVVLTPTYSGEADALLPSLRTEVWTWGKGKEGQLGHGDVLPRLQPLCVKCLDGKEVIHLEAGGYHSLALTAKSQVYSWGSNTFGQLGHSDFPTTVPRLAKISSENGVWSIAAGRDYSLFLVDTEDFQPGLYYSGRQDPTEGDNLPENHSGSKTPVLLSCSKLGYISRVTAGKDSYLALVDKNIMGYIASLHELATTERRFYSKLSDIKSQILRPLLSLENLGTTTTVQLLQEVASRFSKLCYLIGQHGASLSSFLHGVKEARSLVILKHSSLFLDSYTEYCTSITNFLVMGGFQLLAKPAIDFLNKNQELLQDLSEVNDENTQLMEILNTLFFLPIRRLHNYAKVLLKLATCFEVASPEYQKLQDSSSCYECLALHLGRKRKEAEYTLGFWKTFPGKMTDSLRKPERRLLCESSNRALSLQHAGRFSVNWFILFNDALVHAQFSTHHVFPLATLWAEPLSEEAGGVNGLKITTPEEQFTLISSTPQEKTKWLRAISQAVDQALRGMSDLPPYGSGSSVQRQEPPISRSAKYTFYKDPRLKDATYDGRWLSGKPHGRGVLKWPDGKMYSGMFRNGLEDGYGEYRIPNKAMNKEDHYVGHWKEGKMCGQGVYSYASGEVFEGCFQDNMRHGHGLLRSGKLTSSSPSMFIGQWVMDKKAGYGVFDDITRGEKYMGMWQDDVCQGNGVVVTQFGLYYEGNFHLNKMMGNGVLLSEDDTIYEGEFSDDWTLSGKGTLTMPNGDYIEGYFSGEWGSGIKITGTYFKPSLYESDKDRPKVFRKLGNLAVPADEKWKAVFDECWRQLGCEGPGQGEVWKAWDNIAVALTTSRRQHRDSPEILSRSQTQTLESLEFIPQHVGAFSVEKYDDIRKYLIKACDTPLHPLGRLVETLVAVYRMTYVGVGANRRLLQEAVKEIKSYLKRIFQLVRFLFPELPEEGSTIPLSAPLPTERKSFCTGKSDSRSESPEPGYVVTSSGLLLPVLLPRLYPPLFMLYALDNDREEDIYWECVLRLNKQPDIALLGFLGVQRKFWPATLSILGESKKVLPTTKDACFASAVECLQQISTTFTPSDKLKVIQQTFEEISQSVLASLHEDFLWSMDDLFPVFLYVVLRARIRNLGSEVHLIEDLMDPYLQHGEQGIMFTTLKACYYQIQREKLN
UniProt Q96MH2: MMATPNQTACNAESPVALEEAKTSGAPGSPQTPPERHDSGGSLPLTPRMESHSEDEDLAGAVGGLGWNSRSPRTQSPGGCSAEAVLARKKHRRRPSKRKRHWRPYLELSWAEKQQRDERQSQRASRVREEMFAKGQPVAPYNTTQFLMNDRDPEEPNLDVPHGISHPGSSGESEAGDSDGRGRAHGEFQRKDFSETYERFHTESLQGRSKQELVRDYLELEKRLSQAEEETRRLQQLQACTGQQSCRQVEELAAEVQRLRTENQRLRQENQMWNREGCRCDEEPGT
UniProt Q96NL6: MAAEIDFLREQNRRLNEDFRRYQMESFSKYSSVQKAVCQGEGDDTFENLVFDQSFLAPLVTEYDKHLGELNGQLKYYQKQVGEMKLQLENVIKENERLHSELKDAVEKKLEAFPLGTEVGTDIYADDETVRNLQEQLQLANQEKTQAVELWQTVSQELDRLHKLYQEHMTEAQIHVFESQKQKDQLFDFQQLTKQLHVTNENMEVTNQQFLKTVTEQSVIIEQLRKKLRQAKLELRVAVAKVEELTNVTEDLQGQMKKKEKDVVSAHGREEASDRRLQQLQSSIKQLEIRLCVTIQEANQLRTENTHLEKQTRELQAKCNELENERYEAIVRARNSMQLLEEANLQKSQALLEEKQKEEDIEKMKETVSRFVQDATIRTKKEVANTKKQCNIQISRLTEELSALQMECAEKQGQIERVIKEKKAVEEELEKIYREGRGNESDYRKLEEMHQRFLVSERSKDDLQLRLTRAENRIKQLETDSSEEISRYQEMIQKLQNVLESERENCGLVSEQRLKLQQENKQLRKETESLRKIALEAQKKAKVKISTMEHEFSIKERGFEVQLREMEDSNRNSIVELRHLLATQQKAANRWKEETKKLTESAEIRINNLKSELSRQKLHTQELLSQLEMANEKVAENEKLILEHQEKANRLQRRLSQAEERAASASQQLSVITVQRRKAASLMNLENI

How did the log2 fold change turn out when “FAM111A (peptide sequence: KAESPEYVHMYTQR, peptide start residue: 505) (UniProt Q96PZ2)” was run?
The log2 fold change was 0.568.

Which log2 fold change does the source give for “CCDC97 (peptide sequence: EPDKGCIEPGPGHWGELSR, peptide start residue: 12) (UniProt Q96F63)” here?
The log2 fold change was 0.109.

“UniProt Q96JH8 (peptide sequence: VFGDSVCTGTHYK, peptide start residue: 67)” was tested. Which log2 fold change did it give?
Its log2 fold change is -0.973.

With “UniProt Q96FV0 (peptide sequence: FLSLAGNQIR, peptide start residue: 92)” as the target, how does the log2 fold change read?
Its log2 fold change is -0.294.

How did the log2 fold change turn out when “UniProt Q96NA8 (peptide sequence: QGCQPLECAR, peptide start residue: 24)” was run?
Its log2 fold change is 0.998.

With “ACAP3 (peptide sequence: SLGVHCSK, peptide start residue: 447) (UniProt Q96P50)” as the target, how does the log2 fold change read?
The log2 fold change was -0.239.

“PWWP2A (peptide sequence: NSVVAEKK, peptide start residue: 327) (UniProt Q96N64)” was tested. Which log2 fold change did it give?
Its log2 fold change is 0.638.

For “UniProt Q96IX5 (peptide sequence: AGPESDAQYQFTGIKK, peptide start residue: 2)”, which log2 fold change is on record?
The log2 fold change was -0.229.

For “USP47 (peptide sequence: VMFDALEQK, peptide start residue: 279) (UniProt Q96K76)”, which log2 fold change is on record?
Its log2 fold change is -0.45.

“BICD1 (peptide sequence: LTEHVNAMR, peptide start residue: 371) (UniProt Q96G01)” was tested. Which log2 fold change did it give?
The log2 fold change was 0.374.

How did the log2 fold change turn out when “EP400 (peptide sequence: KAGLWSQR, peptide start residue: 790) (UniProt Q96L91)” was run?
The log2 fold change was 0.303.

“PDXP (peptide sequence: LAGDPSAGDGAAPR, peptide start residue: 129) (UniProt Q96GD0)” was tested. Which log2 fold change did it give?
Its log2 fold change is 0.263.

With “UBE2E2 (peptide sequence: GDNIYEWR, peptide start residue: 87) (UniProt Q96LR5)” as the target, how does the log2 fold change read?
The log2 fold change was -0.116.

“MBOAT7 (peptide sequence: KEMASGFSK, peptide start residue: 128) (UniProt Q96N66)” was tested. Which log2 fold change did it give?
The log2 fold change was 0.294.

For “LENG8 (peptide sequence: LTCAPDPSTVRPVAVLKK, peptide start residue: 564) (UniProt Q96PV6)”, which log2 fold change is on record?
The log2 fold change was -0.261.

With “UniProt Q96M91 (peptide sequence: REAQEARR, peptide start residue: 215)” as the target, how does the log2 fold change read?
The log2 fold change was -3.08e-05.

How did the log2 fold change turn out when “RMND5B (peptide sequence: CWYHSVFACPILR, peptide start residue: 330) (UniProt Q96G75)” was run?
Its log2 fold change is 0.242.

“KIF16B (peptide sequence: DLLAEKEKFEEER, peptide start residue: 671) (UniProt Q96L93)” was tested. Which log2 fold change did it give?
Its log2 fold change is 0.544.

“PBK (peptide sequence: TPSKLSEK, peptide start residue: 9) (UniProt Q96KB5)” was tested. Which log2 fold change did it give?
The log2 fold change was -0.631.

With “VPS39 (peptide sequence: QQQIHHIK, peptide start residue: 342) (UniProt Q96JC1)” as the target, how does the log2 fold change read?
The log2 fold change was 0.943.

“FAM89A (peptide sequence: VDGLPPLPK, peptide start residue: 21) (UniProt Q96GI7)” was tested. Which log2 fold change did it give?
The log2 fold change was -0.282.

For “CNRIP1 (peptide sequence: LLTGSSYK, peptide start residue: 40) (UniProt Q96F85)”, which log2 fold change is on record?
Its log2 fold change is -0.111.

How did the log2 fold change turn out when “PHF12 (peptide sequence: ANGPHLYSSPTDSTDPR, peptide start residue: 547) (UniProt Q96QT6)” was run?
Its log2 fold change is -0.728.

How did the log2 fold change turn out when “ARAP1 (peptide sequence: DLPDGLFTR, peptide start residue: 1037) (UniProt Q96P48)” was run?
Its log2 fold change is -0.301.

With “ALS2 (peptide sequence: YTFYKDPR, peptide start residue: 1036) (UniProt Q96Q42)” as the target, how does the log2 fold change read?
Its log2 fold change is -0.429.

For “HEXIM2 (peptide sequence: DFSETYER, peptide start residue: 266) (UniProt Q96MH2)”, which log2 fold change is on record?
Its log2 fold change is 0.101.

Which log2 fold change does the source give for “SCLT1 (peptide sequence: QKEEDIEK, peptide start residue: 356) (UniProt Q96NL6)” here?
Its log2 fold change is -0.531.
